PubChem BioAssay AID1259254 – NCATS | 2017

Aim: 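Finding genes that stop cells copying their DNA twice in one cycle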 (primary screen)
Cells: human HCT116 colorectal cancer cells
Reagent: single siRNA against human genes
Duration: 3 days
Measurement: 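Imaged Hoechst DNA stain sorts each cell into a cycle phase by DNA amount; per plate, G2 fraction set to 0% for non-targeting and 100% for GMNN siRNA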
Reading the numbers: G2 robust z-score: higher = more G2 cells, more excess DNA replication
Rule for the call: 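Active siRNAs have a G2 robust z of 5 or more median absolute deviations over the median, which in these data means about 38% or higher of GMNN control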
This is a random part of about 59,000 reagents. About 1,550 of all reagents (2.6%) were called active. 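G2 share is only a proxy for re-replication; each gene was hit by three separate siRNAs, and active genes were retested.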 Unmarked entries are inactive. Reagents against one gene are numbered here. Further read-outs or replicates are left out here. Not stated in the record: the amount of reagent.

ENTPD6 #1 scored G2 robust z-score -0.203. With knock-down of ENTPD6 #2, the record shows G2 robust z-score -0.89. ENTPD6 #3 scored G2 robust z-score -0.285. Depletion of CFAP65 #1 gave: G2 robust z-score -0.149. With knock-down of CFAP65 #2 the results were G2 robust z-score 0.797. Against CFAP65 #3 the deposit lists G2 robust z-score -0.0904.

AP1M1 #1 showed G2 robust z-score 0.122. Depletion of AP1M1 #2 resulted in: G2 robust z-score 2.55. After knock-down of AP1M1 #3 the results were G2 robust z-score -0.58. Knock-down of GADD45GIP1 #1 gave: G2 robust z-score -0.784. Against GADD45GIP1 #2, the values are G2 robust z-score -0.86. Knock-down of GADD45GIP1 #3 came out at: G2 robust z-score 2.1.

DPY30 #1 gave G2 robust z-score -0.894. Against DPY30 #2, the entry reads G2 robust z-score -0.54. Against DPY30 #3, the entry reads G2 robust z-score -0.602. Depletion of SHLD1 #1 came out at: G2 robust z-score 1.55. Silencing of SHLD1 #2 came out at: G2 robust z-score -0.495. For SHLD1 #3, the values are G2 robust z-score 0.958.
